Experimental data from article PMC3276564.
These are yes or no findings as the source states them, for the method shown. Binding can be weak; no strength is given.

By UniProt entry, the sequences of proteins in these tests, tags left out. Where a name states a change or a piece, a line headed by the entry shows the natural chain unless it says otherwise. Residues count along the entry.
UniProt P15962, residues 1-296: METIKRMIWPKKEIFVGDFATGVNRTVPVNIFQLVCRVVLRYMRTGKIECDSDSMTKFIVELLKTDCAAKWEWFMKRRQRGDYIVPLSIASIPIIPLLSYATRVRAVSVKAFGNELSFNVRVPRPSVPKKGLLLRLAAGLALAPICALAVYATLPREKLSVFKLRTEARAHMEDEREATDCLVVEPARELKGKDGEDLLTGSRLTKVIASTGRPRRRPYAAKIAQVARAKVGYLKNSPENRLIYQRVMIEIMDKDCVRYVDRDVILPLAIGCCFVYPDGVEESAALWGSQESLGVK
UniProt Q9FJL3: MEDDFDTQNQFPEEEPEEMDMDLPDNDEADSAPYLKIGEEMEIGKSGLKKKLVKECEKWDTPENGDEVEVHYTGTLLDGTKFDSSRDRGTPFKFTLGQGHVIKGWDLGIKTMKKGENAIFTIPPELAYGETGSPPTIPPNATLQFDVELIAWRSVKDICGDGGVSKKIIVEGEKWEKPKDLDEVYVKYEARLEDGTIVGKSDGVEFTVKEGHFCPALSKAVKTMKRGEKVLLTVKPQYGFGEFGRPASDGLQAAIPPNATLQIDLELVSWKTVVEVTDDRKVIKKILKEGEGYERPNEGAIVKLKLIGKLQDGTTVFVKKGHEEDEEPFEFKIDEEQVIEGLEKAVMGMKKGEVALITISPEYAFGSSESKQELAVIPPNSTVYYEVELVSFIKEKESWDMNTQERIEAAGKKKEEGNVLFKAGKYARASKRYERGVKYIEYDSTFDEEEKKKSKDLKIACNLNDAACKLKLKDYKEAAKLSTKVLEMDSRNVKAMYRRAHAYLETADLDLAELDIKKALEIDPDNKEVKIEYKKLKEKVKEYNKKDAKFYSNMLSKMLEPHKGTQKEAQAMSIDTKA
UniProt Q9C566: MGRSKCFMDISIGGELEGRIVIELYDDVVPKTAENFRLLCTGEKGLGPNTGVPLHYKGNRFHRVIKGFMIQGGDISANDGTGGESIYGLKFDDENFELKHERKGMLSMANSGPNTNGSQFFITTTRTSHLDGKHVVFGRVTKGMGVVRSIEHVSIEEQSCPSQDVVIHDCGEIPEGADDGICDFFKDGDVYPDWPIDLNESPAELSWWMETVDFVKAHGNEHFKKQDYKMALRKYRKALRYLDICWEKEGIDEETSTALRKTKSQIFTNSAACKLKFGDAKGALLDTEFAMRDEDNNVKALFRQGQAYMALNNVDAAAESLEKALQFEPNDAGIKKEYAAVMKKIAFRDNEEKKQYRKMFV

Assays:
[1] = molecular target: TBSV p33 replication protein (split-ubiquitin bait, pGAD-BT2-N-His33) (Tomato bushy stunt virus) (UniProt P15962); assay: two-hybrid; split-ubiquitin membrane yeast two-hybrid (MYTH, Dualmembrane kit3); viral replication protein as bait co-expressed with NubG prey in yeast NMY51; growth on Trp-/Leu-/His-/Ade- plates
[2] = molecular target: p130 replication protein of Tobacco mosaic virus (TMV) (MYTH bait) (Tobacco mosaic virus); assay: as above

Molecule | binding [1] | binding [2]
TPR domain of Arabidopsis Cyp40-like protein At5g48570 (MYTH prey) (from UniProt Q9FJL3) (domain or fragment) | binds | 
catalytic Cyp domain of Cpr7p (MYTH prey) (from UniProt P47103) (domain or fragment) | binds | 
TPR domain of Arabidopsis Cyp40 protein At2g15790 (MYTH prey) (from UniProt Q9C566) (domain or fragment) | binds weakly | 
TPR domain of Cpr7p (MYTH prey) (from UniProt P47103) (domain or fragment) | binds | 
Cpr7p Cyp40-like cyclophilin (MYTH prey, pPRN-N-CPR7) (protein, UniProt P47103 1-393) MIQDPLVYLDISIDKKPIGRIVCKLFREKAPKTTENFYKLCAGDVKSPLKDQQYLSYKGNGFHRVVKNFMIQAGDIVFGTQKDSSSSSVGKGGCSIYADKEEVKTDDESFCYGNFEDENLGEFVEPFTLGMANLGSPNTNNSQFFITTYAAPHLNGKHSIFGQVVHGKSVVRTIENCRVDSDGVPESDVRISDCGVWEKTMGVPLYNASNDQIGGDVYEEYPDDDTHFGDDDFGKALEAANIIKESGTLLFKKKDYSNAFFKYRKSLNYINEYMPEPDVDKERNIQFINLKMKIYLNLSLVLFNLERYDDAIMYATYLLEMDNVPNRDQAKAYYRRGNSYLKKKRLDEALQDYIFCKEKNPDDEVIEQRIEYVNRLIEENKEKTRKNISKFFS |  | binds
